Laboratory results from the supplement of paper PMC12823440, “Inhibitors supercharge kinase turnover through native proteolytic circuits” (Nature, 2025).
The other results are listed elsewhere or left out. The calls rarely recur for the same compound in another form.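 Kinases were expressed as nanoluciferase fusions in K562 cells and luminescence was read every 4 h between 2 and 18 h as percent of control, DMSO set to 100% and a positive control to 0%. A time point counts as decreased when the signal drops significantly (2 sigma). The hit call is the authors' own, does not follow from the count of time points alone, and its rule is not shown.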

The chains behind the UniProt entries cited, without tags or fusion partners. Where a name states a change or a piece, a line headed by the entry shows the natural chain unless it says otherwise.
UniProt P28482, whole entry: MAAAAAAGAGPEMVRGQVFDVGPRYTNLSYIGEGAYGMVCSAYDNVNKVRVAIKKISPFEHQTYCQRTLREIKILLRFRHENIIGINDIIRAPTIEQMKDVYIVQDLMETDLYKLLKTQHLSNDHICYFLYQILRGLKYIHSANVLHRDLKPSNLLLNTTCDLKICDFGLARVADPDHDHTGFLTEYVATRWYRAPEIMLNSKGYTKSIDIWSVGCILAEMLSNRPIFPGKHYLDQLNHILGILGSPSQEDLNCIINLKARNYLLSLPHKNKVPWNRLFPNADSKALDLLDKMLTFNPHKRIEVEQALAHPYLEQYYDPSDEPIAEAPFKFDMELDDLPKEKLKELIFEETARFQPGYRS
UniProt P31152, whole entry: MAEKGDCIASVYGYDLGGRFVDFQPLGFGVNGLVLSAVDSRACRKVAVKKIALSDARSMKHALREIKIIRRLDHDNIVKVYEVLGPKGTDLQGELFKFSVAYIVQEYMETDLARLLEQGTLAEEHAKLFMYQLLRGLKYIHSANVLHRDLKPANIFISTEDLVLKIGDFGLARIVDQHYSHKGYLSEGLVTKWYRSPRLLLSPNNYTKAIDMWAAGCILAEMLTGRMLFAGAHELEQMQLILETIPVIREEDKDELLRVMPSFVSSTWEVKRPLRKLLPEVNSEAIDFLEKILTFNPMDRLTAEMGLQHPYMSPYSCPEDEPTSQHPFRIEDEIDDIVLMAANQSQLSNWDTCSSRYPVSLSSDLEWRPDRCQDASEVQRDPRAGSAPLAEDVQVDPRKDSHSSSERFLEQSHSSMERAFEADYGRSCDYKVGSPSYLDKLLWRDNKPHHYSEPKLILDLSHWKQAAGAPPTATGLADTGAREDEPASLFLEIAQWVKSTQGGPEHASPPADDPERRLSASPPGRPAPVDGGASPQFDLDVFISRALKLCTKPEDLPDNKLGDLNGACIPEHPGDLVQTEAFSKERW
UniProt P49137, whole entry, looked up: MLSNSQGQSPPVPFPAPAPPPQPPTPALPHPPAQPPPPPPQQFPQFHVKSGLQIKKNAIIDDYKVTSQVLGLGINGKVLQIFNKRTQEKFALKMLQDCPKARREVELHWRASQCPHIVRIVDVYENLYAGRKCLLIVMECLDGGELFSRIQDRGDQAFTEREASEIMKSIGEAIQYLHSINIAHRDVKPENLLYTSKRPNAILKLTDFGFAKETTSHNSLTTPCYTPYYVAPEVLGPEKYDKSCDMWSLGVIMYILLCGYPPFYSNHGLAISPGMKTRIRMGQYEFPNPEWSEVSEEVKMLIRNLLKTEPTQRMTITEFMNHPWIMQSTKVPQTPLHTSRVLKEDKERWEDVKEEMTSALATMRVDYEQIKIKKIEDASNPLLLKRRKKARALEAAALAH
UniProt Q9BUB5: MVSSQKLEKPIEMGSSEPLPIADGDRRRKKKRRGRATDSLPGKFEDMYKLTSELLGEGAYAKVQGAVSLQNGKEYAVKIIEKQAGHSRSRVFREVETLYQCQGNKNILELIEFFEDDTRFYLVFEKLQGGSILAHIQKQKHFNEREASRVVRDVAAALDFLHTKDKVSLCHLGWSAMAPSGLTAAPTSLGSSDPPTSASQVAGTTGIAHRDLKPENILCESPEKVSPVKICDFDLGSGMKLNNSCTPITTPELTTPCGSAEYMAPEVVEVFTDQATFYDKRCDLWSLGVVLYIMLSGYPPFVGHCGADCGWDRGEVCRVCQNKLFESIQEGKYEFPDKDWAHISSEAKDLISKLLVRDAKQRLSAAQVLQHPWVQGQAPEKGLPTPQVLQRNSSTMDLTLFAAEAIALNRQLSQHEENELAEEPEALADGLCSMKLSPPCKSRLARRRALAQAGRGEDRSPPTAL
UniProt Q16620, whole entry, looked up: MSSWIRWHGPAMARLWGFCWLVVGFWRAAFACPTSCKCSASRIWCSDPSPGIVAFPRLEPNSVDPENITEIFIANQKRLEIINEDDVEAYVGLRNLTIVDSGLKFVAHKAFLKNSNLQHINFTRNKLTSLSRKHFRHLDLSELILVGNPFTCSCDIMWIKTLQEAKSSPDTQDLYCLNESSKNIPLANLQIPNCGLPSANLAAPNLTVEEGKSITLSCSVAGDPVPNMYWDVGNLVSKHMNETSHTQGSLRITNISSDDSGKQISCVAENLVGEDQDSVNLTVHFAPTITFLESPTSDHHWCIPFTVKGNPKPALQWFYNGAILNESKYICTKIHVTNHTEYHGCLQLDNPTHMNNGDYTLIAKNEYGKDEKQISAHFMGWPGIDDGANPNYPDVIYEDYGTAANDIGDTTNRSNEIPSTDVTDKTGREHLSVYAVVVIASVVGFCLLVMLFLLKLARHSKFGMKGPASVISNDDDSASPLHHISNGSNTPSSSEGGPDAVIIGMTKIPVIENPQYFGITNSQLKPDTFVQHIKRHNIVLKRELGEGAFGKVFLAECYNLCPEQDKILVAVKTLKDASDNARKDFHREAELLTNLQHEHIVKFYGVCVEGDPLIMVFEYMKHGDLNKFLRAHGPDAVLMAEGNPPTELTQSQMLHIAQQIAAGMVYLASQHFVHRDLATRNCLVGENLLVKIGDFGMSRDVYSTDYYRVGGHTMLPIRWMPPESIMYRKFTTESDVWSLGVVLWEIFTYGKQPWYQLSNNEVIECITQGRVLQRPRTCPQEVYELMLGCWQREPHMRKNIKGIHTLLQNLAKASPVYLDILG
UniProt Q16288, whole entry, looked up: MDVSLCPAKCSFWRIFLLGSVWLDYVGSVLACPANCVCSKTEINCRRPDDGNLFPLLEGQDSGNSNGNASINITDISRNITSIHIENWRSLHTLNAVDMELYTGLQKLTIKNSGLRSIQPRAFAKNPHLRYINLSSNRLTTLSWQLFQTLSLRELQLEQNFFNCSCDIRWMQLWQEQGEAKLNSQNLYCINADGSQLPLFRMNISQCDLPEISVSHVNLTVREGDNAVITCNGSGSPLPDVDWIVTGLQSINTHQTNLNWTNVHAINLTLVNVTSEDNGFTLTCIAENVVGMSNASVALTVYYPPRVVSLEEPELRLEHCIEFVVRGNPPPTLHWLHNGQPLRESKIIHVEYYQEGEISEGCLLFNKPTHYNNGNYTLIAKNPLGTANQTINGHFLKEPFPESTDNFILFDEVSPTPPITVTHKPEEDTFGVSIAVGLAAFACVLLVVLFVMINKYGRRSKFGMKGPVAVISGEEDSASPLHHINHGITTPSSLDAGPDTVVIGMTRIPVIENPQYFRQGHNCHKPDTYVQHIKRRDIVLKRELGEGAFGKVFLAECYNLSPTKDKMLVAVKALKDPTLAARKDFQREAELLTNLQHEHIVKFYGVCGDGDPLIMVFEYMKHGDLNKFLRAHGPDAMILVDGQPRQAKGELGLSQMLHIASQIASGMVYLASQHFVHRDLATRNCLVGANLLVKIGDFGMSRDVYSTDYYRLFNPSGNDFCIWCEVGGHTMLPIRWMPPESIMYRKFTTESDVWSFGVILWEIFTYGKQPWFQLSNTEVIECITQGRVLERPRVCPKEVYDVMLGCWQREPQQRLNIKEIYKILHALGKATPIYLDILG
UniProt O96013: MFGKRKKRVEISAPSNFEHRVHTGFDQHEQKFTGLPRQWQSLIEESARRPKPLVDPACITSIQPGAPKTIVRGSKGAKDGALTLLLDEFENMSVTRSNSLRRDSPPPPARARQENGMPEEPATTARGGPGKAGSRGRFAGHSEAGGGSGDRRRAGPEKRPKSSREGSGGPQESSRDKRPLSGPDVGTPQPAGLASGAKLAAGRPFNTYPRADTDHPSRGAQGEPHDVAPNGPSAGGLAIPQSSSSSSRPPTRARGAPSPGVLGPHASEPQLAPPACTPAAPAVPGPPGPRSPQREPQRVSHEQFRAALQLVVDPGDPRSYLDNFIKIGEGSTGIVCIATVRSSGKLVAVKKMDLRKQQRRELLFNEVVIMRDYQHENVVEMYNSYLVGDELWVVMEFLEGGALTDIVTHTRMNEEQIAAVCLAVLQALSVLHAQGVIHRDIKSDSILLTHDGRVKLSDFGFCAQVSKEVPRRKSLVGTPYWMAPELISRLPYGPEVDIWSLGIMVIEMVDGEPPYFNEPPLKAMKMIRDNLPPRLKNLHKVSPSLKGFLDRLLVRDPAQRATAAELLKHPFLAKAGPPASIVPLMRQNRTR
UniProt Q96KB5: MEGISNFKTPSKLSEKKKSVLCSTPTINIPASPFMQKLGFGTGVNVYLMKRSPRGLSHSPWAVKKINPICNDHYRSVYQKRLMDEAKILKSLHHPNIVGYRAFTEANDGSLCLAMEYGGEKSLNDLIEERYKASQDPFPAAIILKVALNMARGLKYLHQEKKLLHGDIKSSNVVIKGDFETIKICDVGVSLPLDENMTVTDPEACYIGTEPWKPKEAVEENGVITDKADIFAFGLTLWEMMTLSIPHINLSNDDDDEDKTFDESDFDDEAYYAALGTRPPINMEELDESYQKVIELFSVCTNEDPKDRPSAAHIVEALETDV
UniProt P09619, whole entry: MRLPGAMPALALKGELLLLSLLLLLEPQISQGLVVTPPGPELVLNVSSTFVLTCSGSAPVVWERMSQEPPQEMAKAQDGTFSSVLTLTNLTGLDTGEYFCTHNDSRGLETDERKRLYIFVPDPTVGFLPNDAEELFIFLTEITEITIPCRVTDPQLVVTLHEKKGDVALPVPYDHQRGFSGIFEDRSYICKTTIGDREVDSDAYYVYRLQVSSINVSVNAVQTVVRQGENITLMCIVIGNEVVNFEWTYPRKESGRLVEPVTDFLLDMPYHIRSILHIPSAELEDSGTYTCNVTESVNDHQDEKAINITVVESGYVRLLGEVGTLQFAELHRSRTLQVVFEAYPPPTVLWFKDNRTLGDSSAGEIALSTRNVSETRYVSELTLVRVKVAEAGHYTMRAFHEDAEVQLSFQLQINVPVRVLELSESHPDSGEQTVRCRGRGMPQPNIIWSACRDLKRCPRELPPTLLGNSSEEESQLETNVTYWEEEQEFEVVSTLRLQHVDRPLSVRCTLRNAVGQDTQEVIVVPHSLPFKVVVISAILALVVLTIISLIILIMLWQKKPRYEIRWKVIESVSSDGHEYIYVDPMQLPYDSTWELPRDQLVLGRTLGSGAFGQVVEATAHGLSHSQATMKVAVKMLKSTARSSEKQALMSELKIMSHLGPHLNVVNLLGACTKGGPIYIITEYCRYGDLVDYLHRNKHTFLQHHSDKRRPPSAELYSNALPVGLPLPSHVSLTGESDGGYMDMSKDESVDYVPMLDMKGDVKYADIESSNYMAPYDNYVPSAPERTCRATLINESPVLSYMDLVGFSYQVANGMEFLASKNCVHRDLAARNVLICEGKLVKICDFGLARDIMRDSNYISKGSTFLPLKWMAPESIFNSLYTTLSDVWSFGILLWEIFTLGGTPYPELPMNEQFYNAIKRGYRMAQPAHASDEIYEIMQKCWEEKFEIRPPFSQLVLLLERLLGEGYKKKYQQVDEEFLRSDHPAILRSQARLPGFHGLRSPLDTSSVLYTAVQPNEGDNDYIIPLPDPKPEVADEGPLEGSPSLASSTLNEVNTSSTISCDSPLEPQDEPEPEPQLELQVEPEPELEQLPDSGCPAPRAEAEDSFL
UniProt Q15118, whole entry, looked up: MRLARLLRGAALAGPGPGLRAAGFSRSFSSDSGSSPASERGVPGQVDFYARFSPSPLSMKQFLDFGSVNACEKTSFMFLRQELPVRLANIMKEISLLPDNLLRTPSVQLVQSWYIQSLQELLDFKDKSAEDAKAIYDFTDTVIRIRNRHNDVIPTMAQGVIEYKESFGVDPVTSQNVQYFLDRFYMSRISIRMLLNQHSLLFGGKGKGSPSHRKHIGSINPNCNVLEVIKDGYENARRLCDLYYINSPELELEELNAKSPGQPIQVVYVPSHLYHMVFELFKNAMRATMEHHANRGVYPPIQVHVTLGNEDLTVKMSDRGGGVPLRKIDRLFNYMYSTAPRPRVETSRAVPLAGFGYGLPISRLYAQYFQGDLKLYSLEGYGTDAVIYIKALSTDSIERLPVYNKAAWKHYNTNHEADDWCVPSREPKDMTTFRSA

Legend:
Assay in all cases: kinase-Nluc reporter destabilization hit call (1 = scored as downregulated) (binary); higher = compound decreases kinase abundance
Conditions in all cases: K562; 2-18 h
[1] = target: MAPK1 (UniProt P28482)
[2] = target: MAPK4 (UniProt P31152)
[3] = target: MAPKAPK2 (UniProt P49137)
[4] = target: MKNK1 (UniProt Q9BUB5)
[5] = target: NTRK2 (UniProt Q16620)
[6] = target: NTRK3 (UniProt Q16288)
[7] = target: PAK4 (UniProt O96013)
[8] = target: PBK (UniProt Q96KB5)
[9] = target: PDGFRB (UniProt P09619)
[10] = target: PDK1 (UniProt Q15118)

Measured: kinase-Nluc reporter destabilization hit call

Cc1ccc(C)c(OCCn2cc(C(=O)O)c3ccccc32)c1 (10 µM)
inactive: [1] 0 | [2] 0 | [3] 0 | [4] 0 | [5] 0 | [6] 0 | [7] 0 | [8] 0 | [9] 0 | [10] 0

Nc1ncc(-c2ccnc(Nc3ccncc3)n2)c(CC2CC2)n1 (10 µM)
inactive: [1] 0 | [2] 0 | [3] 0 | [4] 0 | [5] 0 | [6] 0 | [7] 0 | [8] 0 | [9] 0 | [10] 0

O=C(Nc1ccc(Cl)cc1)C1CCCN(C(=O)c2cc(C(F)(F)F)cc(C(F)(F)F)c2)C1 (stereo not given) (10 µM)
inactive: [1] 0 | [2] 0 | [3] 0 | [4] 0 | [5] 0 | [6] 0 | [7] 0 | [8] 0 | [9] 0 | [10] 0

CCN(CC)CCOc1ccc(Nc2nc(-c3ccccc3NC(=O)CCN3CCN(C)CC3)nc3ccccc23)cc1 (2.5 µM)
inactive: [1] 0 | [2] 0 | [3] 0 | [4] 0 | [5] 0 | [6] 0 | [7] 0 | [8] 0 | [9] 0 | [10] 0

CC(C)n1c(=O)n(C)c2cnc3cc(F)c(-c4ccc(OCCCN5CCCCC5)nc4)cc3c21 (10 µM)
inactive: [1] 0 | [2] 0 | [3] 0 | [4] 0 | [5] 0 | [6] 0 | [7] 0 | [8] 0 | [9] 0 | [10] 0

COc1cc2c(cc1O)C[C@H]1c3cc(O)c(OC)cc3CC[N@@+]1(C)C2 [Phellodendrine] (10 µM)
inactive: [1] 0 | [2] 0 | [3] 0 | [4] 0 | [5] 0 | [6] 0 | [7] 0 | [8] 0 | [9] 0 | [10] 0

c1nn(C2CCOCC2)cc1Nc1ncc2nnn(-c3ccc4cn[nH]c4c3)c2n1 (10 µM)
inactive: [1] 0 | [2] 0 | [3] 0 | [4] 0 | [5] 0 | [6] 0 | [7] 0 | [8] 0 | [9] 0 | [10] 0

Brc1ccc(CSc2nc3ccccc3o2)cc1 [BMP signaling agonist sb4] (10 µM)
inactive: [1] 0 | [2] 0 | [3] 0 | [4] 0 | [5] 0 | [6] 0 | [7] 0 | [8] 0 | [9] 0 | [10] 0

O=C1OC(/C=C/c2ccccc2)=NC/1=C\c1cccnc1 (10 µM)
inactive: [1] 0 | [2] 0 | [3] 0 | [4] 0 | [5] 0 | [6] 0 | [7] 0 | [8] 0 | [9] 0 | [10] 0

N#Cc1ccc(-c2cnc3[nH]cc(NC(=O)c4cccnc4)c3c2)cc1 (10 µM)
inactive: [1] 0 | [2] 0 | [3] 0 | [4] 0 | [5] 0 | [6] 0 | [7] 0 | [8] 0 | [9] 0 | [10] 0

COc1cc(N2CCC(N3CCN(C)CC3)CC2)ccc1Nc1ncc(Cl)c(-c2c[nH]c3ccccc23)n1 (2.5 µM)
inactive: [1] 0 | [2] 0 | [3] 0 | [4] 0 | [5] 0 | [6] 0 | [7] 0 | [8] 0 | [9] 0 | [10] 0

COC(=O)Nc1ccc(-c2nc(N3CCOCC3)c3cnn(C4CCN(Cc5cccnc5)CC4)c3n2)cc1 (10 µM)
inactive: [1] 0 | [2] 0 | [3] 0 | [4] 0 | [5] 0 | [6] 0 | [7] 0 | [8] 0 | [9] 0 | [10] 0

CN1CCN(c2cc(-c3ccncc3)c(-c3ccc4ccccc4c3)nn2)CC1 (10 µM)
inactive: [1] 0 | [2] 0 | [3] 0 | [4] 0 | [5] 0 | [6] 0 | [7] 0 | [8] 0 | [9] 0 | [10] 0

C=CC(=O)Nc1cccc(Oc2nc(Nc3ccc(N4CCN(C)CC4)c(F)c3)nc3[nH]ccc23)c1 [Avitinib (maleate)] (2.5 µM)
inactive: [1] 0 | [2] 0 | [3] 0 | [4] 0 | [5] 0 | [6] 0 | [7] 0 | [8] 0 | [9] 0 | [10] 0

No new results follow: two of the compounds above.
O=C1OC(/C=C/c2ccccc2)=NC/1=C\c1cccnc1 (10 µM)
inactive: [1] 0 | [2] 0 | [3] 0 | [4] 0 | [5] 0 | [6] 0 | [7] 0 | [8] 0 | [9] 0 | [10] 0

N#Cc1ccc(-c2cnc3[nH]cc(NC(=O)c4cccnc4)c3c2)cc1 (10 µM)
inactive: [1] 0 | [2] 0 | [3] 0 | [4] 0 | [5] 0 | [6] 0 | [7] 0 | [8] 0 | [9] 0 | [10] 0

(continued)

COCCOc1ccc2c(c1)ncn2-c1ccc2cccc(N3CCC(N)CC3)c2n1 (10 µM)
inactive: [1] 0 | [2] 0 | [3] 0 | [4] 0 | [5] 0 | [6] 0 | [7] 0 | [8] 0 | [9] 0 | [10] 0

Cn1c(CNc2cccc(C(=O)NCc3ccccc3C(F)(F)F)c2)nnc1-c1ccncc1 (10 µM)
inactive: [1] 0 | [2] 0 | [3] 0 | [4] 0 | [5] 0 | [6] 0 | [7] 0 | [8] 0 | [9] 0 | [10] 0

NC1(C(=O)NCCCn2cc(-c3ccc(OC(F)(F)F)cc3)c3cc(CN4CCN(Cc5c(Cl)cccc5Cl)CC4)ccc32)CCNCC1 (2.5 µM)
inactive: [1] 0 | [2] 0 | [3] 0 | [4] 0 | [5] 0 | [6] 0 | [7] 0 | [8] 0 | [9] 0 | [10] 0

Cc1c(Cl)cccc1S(=O)(=O)Nc1nc(NCCc2ccccc2)nc2c1CN(Cc1ccccc1)CC2 (2.5 µM)
inactive: [1] 0 | [2] 0 | [3] 0 | [4] 0 | [5] 0 | [6] 0 | [7] 0 | [8] 0 | [9] 0 | [10] 0
